Assay results published in ChEMBL document CHEMBL4316593 (Eur J Med Chem, 2019).
The source gives many values for each of these; only a part stands here.

Columns and labels:
Format in all cases: cell-based
Settings in all cases: U-87MG ATCC
[1] = Inhibition of RTK/PI3K/AKT/mTOR signaling in human U87 cells assessed as up regulation of lysine demethylase 3A gene expression at cytotoxic IC50 measured after 48 hrs relative to control
[2] = Inhibition of RTK/PI3K/AKT/mTOR signaling in human U87 cells assessed as down regulation of TUBB3 gene expression at cytotoxic IC50 measured after 48 hrs relative to control
[3] = Inhibition of RTK/PI3K/AKT/mTOR signaling in human U87 cells assessed as up regulation of branched chain ketoacid dehydrogenase kinase gene expression at cytotoxic IC50 measured after 48 hrs relative to control
[4] = Inhibition of RTK/PI3K/AKT/mTOR signaling in human U87 cells assessed as up regulation of JPT2 gene expression at cytotoxic IC50 measured after 48 hrs relative to control
[5] = Inhibition of RTK/PI3K/AKT/mTOR signaling in human U87 cells assessed as up regulation of SLC16A3 gene expression at cytotoxic IC50 measured after 48 hrs relative to control
[6] = Inhibition of RTK/PI3K/AKT/mTOR signaling in human U87 cells assessed as down regulation of C12orf49 gene expression at cytotoxic IC50 measured after 48 hrs relative to control
[7] = Inhibition of RTK/PI3K/AKT/mTOR signaling in human U87 cells assessed as down regulation of PIM1 gene expression at cytotoxic IC50 measured after 48 hrs relative to control
[8] = Inhibition of RTK/PI3K/AKT/mTOR signaling in human U87 cells assessed as down regulation of KNTC1 gene expression at cytotoxic IC50 measured after 48 hrs relative to control
[9] = Inhibition of RTK/PI3K/AKT/mTOR signaling in human U87 cells assessed as up regulation of POLRMT gene expression at cytotoxic IC50 measured after 48 hrs relative to control
[10] = Inhibition of RTK/PI3K/AKT/mTOR signaling in human U87 cells assessed as up regulation of solute carrier family 35 member A5 gene expression at cytotoxic IC50 measured after 48 hrs relative to control
[11] = Inhibition of RTK/PI3K/AKT/mTOR signaling in human U87 cells assessed as down regulation of UBOX5 gene expression at cytotoxic IC50 measured after 48 hrs relative to control
[12] = Inhibition of RTK/PI3K/AKT/mTOR signaling in human U87 cells assessed as up regulation of AP3S1 gene expression at cytotoxic IC50 measured after 48 hrs relative to control
[13] = Inhibition of RTK/PI3K/AKT/mTOR signaling in human U87 cells assessed as down regulation of HEXB gene expression at cytotoxic IC50 measured after 48 hrs relative to control
[14] = Inhibition of RTK/PI3K/AKT/mTOR signaling in human U87 cells assessed as up regulation of FUT3 gene expression at cytotoxic IC50 measured after 48 hrs relative to control
[15] = Inhibition of RTK/PI3K/AKT/mTOR signaling in human U87 cells assessed as down regulation of GADD45G gene expression at cytotoxic IC50 measured after 48 hrs relative to control
[16] = Inhibition of RTK/PI3K/AKT/mTOR signaling in human U87 cells assessed as up regulation of A-kinase anchoring protein 8 gene expression at cytotoxic IC50 measured after 48 hrs relative to control
[17] = Inhibition of RTK/PI3K/AKT/mTOR signaling in human U87 cells assessed as up regulation of PHD finger protein 23 gene expression at cytotoxic IC50 measured after 48 hrs relative to control
[18] = Inhibition of RTK/PI3K/AKT/mTOR signaling in human U87 cells assessed as down regulation of METTL14 gene expression at cytotoxic IC50 measured after 48 hrs relative to control
[19] = Inhibition of RTK/PI3K/AKT/mTOR signaling in human U87 cells assessed as up regulation of Cbl proto-oncogene C gene expression at cytotoxic IC50 measured after 48 hrs relative to control
[20] = Inhibition of RTK/PI3K/AKT/mTOR signaling in human U87 cells assessed as up regulation of cadherin 1 gene expression at cytotoxic IC50 measured after 48 hrs relative to control
[21] = Inhibition of RTK/PI3K/AKT/mTOR signaling in human U87 cells assessed as up regulation of plastin 3 gene expression at cytotoxic IC50 measured after 48 hrs relative to control
[22] = Inhibition of RTK/PI3K/AKT/mTOR signaling in human U87 cells assessed as down regulation of RHEB gene expression at cytotoxic IC50 measured after 48 hrs relative to control
[23] = Inhibition of RTK/PI3K/AKT/mTOR signaling in human U87 cells assessed as up regulation of fatty acid desaturase 1 gene expression at cytotoxic IC50 measured after 48 hrs relative to control
[24] = Inhibition of RTK/PI3K/AKT/mTOR signaling in human U87 cells assessed as down regulation of ZSWIM8 gene expression at cytotoxic IC50 measured after 48 hrs relative to control
[25] = Inhibition of RTK/PI3K/AKT/mTOR signaling in human U87 cells assessed as up regulation of NACA gene expression at cytotoxic IC50 measured after 48 hrs relative to control
[26] = Inhibition of RTK/PI3K/AKT/mTOR signaling in human U87 cells assessed as down regulation of HJURP gene expression at cytotoxic IC50 measured after 48 hrs relative to control
[27] = Inhibition of RTK/PI3K/AKT/mTOR signaling in human U87 cells assessed as down regulation of RALY gene expression at cytotoxic IC50 measured after 48 hrs relative to control
[28] = Inhibition of RTK/PI3K/AKT/mTOR signaling in human U87 cells assessed as down regulation of SEC61B gene expression at cytotoxic IC50 measured after 48 hrs relative to control
[29] = Inhibition of RTK/PI3K/AKT/mTOR signaling in human U87 cells assessed as down regulation of UHRF1BP1 gene expression at cytotoxic IC50 measured after 48 hrs relative to control
[30] = Inhibition of RTK/PI3K/AKT/mTOR signaling in human U87 cells assessed as down regulation of SESN2 gene expression at cytotoxic IC50 measured after 48 hrs relative to control
[31] = Inhibition of RTK/PI3K/AKT/mTOR signaling in human U87 cells assessed as up regulation of ATP2B1 gene expression at cytotoxic IC50 measured after 48 hrs relative to control
[32] = Inhibition of RTK/PI3K/AKT/mTOR signaling in human U87 cells assessed as down regulation of ABHD5 gene expression at cytotoxic IC50 measured after 48 hrs relative to control

## CC(=O)C(=NNc1ccccc1C#N)C(C)=O
[1]
  log2FC: 1.32
[2]
  log2FC: -2.98
[3]
  log2FC: 0.937
[4]
  log2FC: 0.567
[5]
  log2FC: 1.69
[6]
  log2FC: -0.942
[7]
  log2FC: -0.724
[8]
  log2FC: -0.819
[9]
  log2FC: 0.526
[10]
  log2FC: 0.705
[11]
  log2FC: -0.954
[12]
  log2FC: 0.533
[13]
  log2FC: -0.975
[14]
  log2FC: 2
[15]
  log2FC: -4.43
[16]
  log2FC: 1.32
[17]
  log2FC: 0.73
[18]
  log2FC: -0.686
[19]
  log2FC: 0.752
[20]
  log2FC: 1.21
[21]
  log2FC: 0.695
[22]
  log2FC: -0.768
[23]
  log2FC: 0.759
[24]
  log2FC: -0.753
[25]
  log2FC: 0.353
[26]
  log2FC: -0.843
[27]
  log2FC: -0.987
[28]
  log2FC: -0.495
[29]
  log2FC: -0.561
[30]
  log2FC: -2.55
[31]
  log2FC: 0.423
[32]
  log2FC: -2.16
